Data on 15 molecules can be found in paper PMC6015050.

Test [1] addresses T1, Ycf4 fused with HA tag at the N-terminus (HA-Ycf4) (C. reinhardtii) (UniProt O20030).
T1 sequence: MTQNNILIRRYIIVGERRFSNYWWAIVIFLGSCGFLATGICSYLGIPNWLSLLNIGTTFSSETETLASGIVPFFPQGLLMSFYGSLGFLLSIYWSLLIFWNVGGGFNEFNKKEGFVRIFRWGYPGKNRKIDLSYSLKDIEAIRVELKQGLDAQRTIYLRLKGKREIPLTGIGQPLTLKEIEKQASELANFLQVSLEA
The experiment in a line: co-IP; affinity-purified HA-Ycf4 preparation (anti-HA beads, β-DM), concentrated and fractionated by sucrose density gradient ultracentrifugation; fractions Y1, Y2, Y3 analysed by stained gel and immunoblot.

Test [2] concerns the target T1, Ycf4 fused with HA tag at the N-terminus (HA-Ycf4) (C. reinhardtii). Nature of the test: co-IP; HA-Ycf4 from thylakoid extracts (1% β-DM) of the HA-ycf4 mutant on anti-HA beads, 1 h, eluted with HA peptide; stained gel and immunoblot; also from cells pulse-labelled with 35S (10 min) and chased 6 h, autoradiography; WT extract as negative control.
The target of test [3] is T2, Ycf3 fused with HA-tag at the C-terminus (Ycf3-HA) (C. reinhardtii) (UniProt O20031).
T2 sequence: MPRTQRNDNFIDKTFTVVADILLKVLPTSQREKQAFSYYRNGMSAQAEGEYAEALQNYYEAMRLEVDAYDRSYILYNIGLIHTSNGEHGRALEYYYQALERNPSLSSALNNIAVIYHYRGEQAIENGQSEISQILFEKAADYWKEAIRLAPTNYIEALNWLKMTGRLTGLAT
Nature of the test: co-IP; Ycf3-HA from thylakoid extracts (1% α-DM) of the ycf3-HA mutant on anti-HA beads in a spin column, 1 h, eluted with HA peptide; stained gel and immunoblot; also from cells pulse-labelled with 35S (10 min) and chased 6 h, autoradiography; WT extract as negative control. (Immunoblotting shows a protein as a band on a membrane.)

The target in test [4] is Y3IP1 fused with HA tag at its C-terminus (Y3IP1-HA) (C. reinhardtii). Nature of the test: co-IP; Y3IP1-HA from thylakoid extracts (1% α-DM) of the c-Y3IP1-HA strain on anti-HA beads, eluted with HA peptide; stained gel and immunoblot.

No constants are given. Whether binding was seen depends on the method and setting. Binding seen in cells or lysates may run through a third protein. Binding can be weak; no strength is given. For some assays here: Sequences can lack the tags named with a protein.

LHCA9: the binding result in test [1] was “no binding”. Still for that read-out and setting: the result for LHCA3 reads “binds”; that for LHCA5, “binds”; that for LHCA4, “binds”. Consider LHCA2, for which the binding entry in test [1] is on record as “no binding”.

Consider PSAL, for which the binding result in test [1] and in test [2] was “binds” in each case. As for LHCA8, in test [1], the binding result is “binds”. Regarding Chlamyopsin protein (COP2), the binding result in test [2] is on record as “no binding”. As to Ycf3-interacting protein 1 (Y3IP1), the binding entry in test [3] and in test [2] was “binds” throughout.

For LHCA1, the binding entry in test [1] is on record as “binds”. On to LHCA7, for which, in test [1], the binding result is listed as “binds”.

For LHCA6, the binding entry in test [1] is “binds”. Same read-out and setting: the value for PSAI was “binds”.

B1: endogenous Ycf4 (protein, UniProt O20030 1-197)
chain: T1 sequence
For B1, the binding entry in test [4] was “binds”.

B2: endogenous Ycf3 (protein, UniProt O20031 1-172)
chain: T2 sequence
B2: the binding result in test [4] is listed as “binds”.
